# In patent publication US6645594B1, “Formazan metal complex” (Kabushiki Kaisha Hayashibara Seibutsu Kagaku Kenkyujo, priority 1999, dated 2003):
# Test: Improvement of light resistance of cyanine dye (xenon lamp exposure of coated glass substrate)
# Details: 2 mg nickel complex with 10 mg and 5 mg cyanine dyes in 3 ml TFP, coated on glass; 500 W xenon lamp, 7 cm, 25 min; transmittance at 700 nm
# Experimental: Then, in accordance with conventional manner, a prescribed amount of the solution was dropped on either side of a glass substrate, 5 cm×5 cm, which had been ground, followed by rotating the substrate at a rate of 1,000 rpm for one minute to homogeneously coat the solution on the substrate and drying the coated solution with sequential blows of hot air and cool air.
# The resulting glass substrates coated with the light absorbents were measured for transmittance (T0) at a wavelength of 700 nm in a usual manner. Then, the substrates were fixed to a position 7 cm apart form a 500 W xenon lamp and exposed with the light of the lamp for 25 min while blowing cool air to the substrates, and then remeasured for transmittance (T) at a wavelength of 700 nm. The transmittance of T and T0 for each formazan metal complex were substituted for the Equation 1 to calculate the residual percentage (%) of each cyanine dye. In parallel, there provided a system using, as a light-resistant improver, a conventional nickel complex having any one of the formazan metal complexes represented by Chemical Formulae 48 and 49 in place of the above formazan metal complexes of the present invention; and a system with no light-resistant improver. These systems as controls were treated similarly as above (hereinafter called “control 1”, “control 2”, and “control 3”).
row,SMILES,Residual percentage (%) of cyanine dye [%]
1,c1ccc(N=NC(=NNc2ccccn2)c2cccnc2)cc1 [Chemical Formula 2],94.4
2,COc1ccc(OC)c(N=NC(=NNc2ccccn2)c2cccnc2)c1 [Chemical Formula 3],98.6
3,O=[N+]([O-])c1ccc(NN=C(N=Nc2ccccc2)c2cccnc2)nc1 [Chemical Formula 8],98.4
4,COc1ccc(OC)c(N=NC(=NNc2ccc([N+](=O)[O-])cn2)c2ccccn2)c1 [Chemical Formula 20],97.6
5,CCC(C)C(N=Nc1cc(OC)ccc1OC)=NNc1ccc([N+](=O)[O-])cn1 (stereo not shown) [Chemical Formula 40],97.2
6,"c1ccc(N=NC(=NNc2ccccc2)c2cccnc2)cc1 [Chemical Formula 48, reference compound]",85.4
7,"O=[N+]([O-])c1ccc(NN=C(N=Nc2ccccc2)c2ccccc2)nc1 [Chemical Formula 49, reference compound]",66.5
